Measured values published in paper PMC7461561.

Amino acid sequences for entries named in this document (tags omitted).
UniProt O60260: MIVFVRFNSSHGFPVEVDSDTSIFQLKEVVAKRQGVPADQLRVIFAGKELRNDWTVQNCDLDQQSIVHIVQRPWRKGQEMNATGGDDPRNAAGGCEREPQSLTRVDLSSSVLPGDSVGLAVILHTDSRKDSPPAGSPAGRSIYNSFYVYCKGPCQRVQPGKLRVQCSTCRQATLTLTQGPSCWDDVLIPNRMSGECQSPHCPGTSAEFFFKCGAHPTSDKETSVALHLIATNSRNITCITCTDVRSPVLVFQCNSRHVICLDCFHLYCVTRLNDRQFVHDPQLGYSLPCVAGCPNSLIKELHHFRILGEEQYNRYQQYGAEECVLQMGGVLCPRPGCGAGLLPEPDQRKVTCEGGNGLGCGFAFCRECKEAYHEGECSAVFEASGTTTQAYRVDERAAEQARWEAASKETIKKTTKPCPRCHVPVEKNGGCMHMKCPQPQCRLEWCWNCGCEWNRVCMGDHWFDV

Biological target: Parkin (human (endogenous in platelets)) (UniProt O60260)
Experiment: affinity purification with mass spectrometry; IP with Parkin-specific antibodies from human DM platelet lysate; silver-stained gel, 10 bands enriched in DM against HC cut out; in-gel trypsin digestion, LC-MS/MS, Mascot search

- binding: binds
B1: Ubiquitin-Like protein 4A (protein, UniProt P11441 1-157)
chain: MQLTVKALQGRECSLQVPEDELVSTLKQLVSEKLNVPVRQQRLLFKGKALADGKRLSDYSIGPNSKLNLVVKPLEKVLLEEGEAQRLADSPPPQVWQLISKVLARHFSAADASRVLEQLQRDYERSLSRLTLDDIERLASRFLHPEVTETMEKGFSK

- binding: binds
B2: Glutathione peroxidase 1 (protein, UniProt P07203 1-203)
chain: MCAARLAAAAAAAQSVYAFSARPLAGGEPVSLGSLRGKVLLIENVASLUGTTVRDYTQMNELQRRLGPRGLVVLGFPCNQFGHQENAKNEEILNSLKYVRPGGGFEPNFMLFEKCEVNGAGAHPLFAFLREALPAPSDDATALMTDPKLITWSPVCRNDVAWNFEKFLVGPDGVPLRRYSRRFQTIDIEPDIEALLSQGPSCA

- binding: binds
B3: Thioredoxin (protein, UniProt P10599 1-105)
chain: MVKQIESKTAFQEALDAAGDKLVVVDFSATWCGPCKMIKPFFHSLSEKYSNVIFLEVDVDDCQDVASECEVKCMPTFQFFKKGQKVGEFSGANKEKLEATINELV

- binding: binds
B4: Acyl-Coenzyme A thioesterase 13 (protein, UniProt Q9NPJ3 1-140)
chain: MTSMTQSLREVIKAMTKARNFERVLGKITLVSAAPGKVICEMKVEEEHTNAIGTLHGGLTATLVDNISTMALLCTERGAPGVSVDMNITYMSPAKLGEDIVITAHVLKQGKTLAFTSVDLTNKATGKLIAQGRHTKHLGN

- binding: binds
B5: ATP synthase protein 8 (protein, UniProt P03928 1-68)
chain: MPQLNTTVWPTMITPMLLTLFLITQLKMLNTNYHLPPSPKPMKMKNYNKPWEPKWTKICSLHSLPPQS

No constants are given. Whether binding was seen depends on the method and setting. Binding seen in cells or lysates may run through a third protein. A yes stands for co-enrichment or nearness to the bait. Other partners may have been found. Each block holds one binder with its values, some of them ahead of it.
